Data taken from PubChem BioAssay AID1487 (National Center for Advancing Translational Sciences (NCATS), 2009).
The list shows a part of the results. These are further read-outs of the screen, such as a control signal, another cell line or another target. No call is given for them. The list favours compounds with an active or inconclusive main result. Potencies come from curve fits of mixed quality, noted in brackets.

Experiment: qHTS Assay for Modulators of Lamin A Splicing
Conditions: HeLa LMNA splicing GFP/RFP minigene ratio, 48 h
Method in brief: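 S3 HeLa cells stably expressing lamin A-EGFP splicing minigene plus DsRed2, 600 cells/well, 48 h compound exposure at 37C. Laser-scanning cytometry; analysed as GFP (500-530 nm)/RFP (575-640 nm) total intensity ratio; 0.5% DMSO vehicle.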

[1] = measured here: GFP splicing reporter channel
[2] = measured here: RFP viability control channel

Row | SMILES | AC50 [1] | AC50 [2]
1 | O=C1CC(c2ccccc2)CC2=C1CN(C1CCCCC1)CN2 (centres undefined) | 35.5 µM [rising, single point] | 35.5 µM [rising, single point]
2 | COC(=O)c1ccc(NC(=O)Nc2ccc3c(c2)nc(C)n3C)cc1 | 20 µM [falling, partial curve, poor fit] | 1 µM [falling, partial curve, poor fit]
3 | O=C(CSc1nc2c([nH]c3ccccc32)c(=O)n1-c1ccc(Cl)cc1)NCc1ccccc1 | 20 µM [falling, single point] | 35.5 µM [falling, single point]
4 | CCOC(=O)c1nc(NCCc2ccccc2)sc1C |  | 3.98 µM [rising, single point]
5 | COc1cc(C(=O)Nc2ccc3c(c2)CCN3C(C)=O)cc(OC)c1OC |  | 1.41 µM [rising, partial curve]
6 | CCC(=O)NCCNc1nc2cc(C)c(C)cc2cc1C#N |  | 0.282 µM [falling, full curve, poor fit]
7 | CC1=C(C(=O)Nc2cc(Cl)ccc2C)C(c2ccccc2F)n2ncnc2N1 (centres undefined) | 0.141 µM [falling, partial curve, poor fit] | 
8 | CN1CCN(C(CNC(=O)C(=O)Nc2ccccc2C#N)c2ccc3c(c2)OCO3)CC1 (centres undefined) |  | 0.0708 µM [falling, full curve, poor fit]
9 | CCc1ccc(S(=O)(=O)NCc2cccn2Cc2cccc(C)c2)cc1 | 35.5 µM [falling, single point] | 35.5 µM [falling, single point]
10 | Cc1cc(C=O)c(C)n1-c1ccc(NC2CCCCC2)c([N+](=O)[O-])c1 | 35.5 µM [falling, single point] | 35.5 µM [falling, single point]
11 | CC(C)c1cc(NC(=O)CCl)on1 |  | 7.94 µM [rising, partial curve, poor fit]
12 | O=C(Nc1cnn(Cc2ccc(F)cc2)c1)C(c1ccccc1)c1ccccc1 |  | 15.8 µM [rising, single point]
13 | Cc1ccc2sc(N(CCCN(C)C)C(=O)c3ccco3)nc2c1C | 11.2 µM [falling, single point] | 
14 | O=C(Nc1c(Cl)ccc2nsnc12)c1ccco1 | 0.316 µM [falling, partial curve] | 
15 | Cc1ccc(-c2ncc(Cl)cc2-c2ccc(S(C)(=O)=O)cc2)cn1 | 0.000794 µM [rising, full curve, poor fit] | 0.000794 µM [rising, full curve, poor fit]
16 | C=C(C)COc1ccc(-c2n[nH]c(C)c2-c2ccccc2OC)c(O)c1 | 12.6 µM [rising, partial curve] | 14.1 µM [rising, partial curve]
17 | Cc1ccc(-n2ncc(C(=O)NCCc3ccsc3)c2C2CCN(C(=O)OC(C)(C)C)CC2)c(C)c1 |  | 10 µM [rising, partial curve]
18 | COC(=O)c1ccc(COc2cc([N+](=O)[O-])cc3cccnc23)o1 |  | 0.0891 µM [falling, full curve, poor fit]

Row | SMILES | AC50 [1] | AC50 [2]
19 | Cc1cccc(S(=O)(=O)c2cn(Cc3ccc(F)cc3)c3cc(N4CCCCC4)c(F)cc3c2=O)c1 | 0.891 µM [rising, full curve, poor fit] | 3.98 µM [rising, single point]
20 | O=C(OCc1ccccc1F)c1ccc2c(c1)-c1ccccc1C2=O |  | 17.8 µM [rising, single point]
21 | O=C(Nc1ccc(S(=O)(=O)N2CCCC2)cc1)c1ccc2c(=O)n3c(nc2c1)CCCCC3 | 1.41 µM [rising, partial curve] | 2.82 µM [rising, partial curve]
22 | Cc1cccn2c(=O)c3cc(C(=O)NC(C)C)n(C)c3nc12 |  | 7.94 µM [rising, partial curve, poor fit]
23 | Cc1ccsc1C(=O)N(c1nc2ccccc2s1)c1c(C)cccc1C | 8.91 µM [rising, partial curve] | 
24 | CCOC(=O)NC1(NCc2ccccc2)Oc2ccccc2O1 |  | 20 µM [rising, single point]
25 | COC(=O)c1cn(C(=O)/C=C/c2ccc(OC)c(OC)c2)c2ccccc12 | 7.08 µM [falling, full curve] | 7.94 µM [falling, partial curve]
26 | CC(C)(C)c1csc(N/N=C/c2cccnc2)n1 | 20 µM [falling, partial curve, poor fit] | 
27 | Cc1nn2c(=O)cc(COC(=O)c3ccc(NC(=O)CCc4ccccc4)cc3)nc2s1 |  | 1.58 µM [rising, partial curve]
28 | Cc1ccc(NC(=O)c2cc(S(=O)(=O)N3CCCCC3)cs2)cc1 |  | 10 µM [rising, partial curve]
29 | CCOc1ccc(-c2cn(-c3ccc(OC)cc3)c(SC)n2)cc1 |  | 31.6 µM [rising, single point]
30 | O=c1c(Cl)c(NCCCO)cnn1-c1nc2ccccc2[nH]1 | 35.5 µM [falling, single point] | 12.6 µM [falling, partial curve]
31 | CCn1cc(C(=O)OCC(=O)c2cc(C)n(-c3ccccc3F)c2C)c(=O)c2ccc(C)nc21 | 11.2 µM [rising, single point] | 31.6 µM [rising, single point]
32 | COc1cc2c(C(=O)N3CCN(c4cccc(Cl)c4)CC3)cn(C)c(=O)c2cc1OC |  | 5.62 µM [rising, single point]
33 | CCOC(=O)c1cnn(-c2ccccc2)c1-n1cccc1C(=O)C(=O)N(C)C |  | 0.00316 µM [rising, full curve, poor fit]
34 | O=C(Nc1cccc(Br)c1)Nc1nc2c(s1)CCCCCC2 | 22.4 µM [falling, partial curve] | 25.1 µM [falling, single point]
35 | CN(C)c1ccc(C(=O)Nc2sc(Nc3ccccc3)nc2C(N)=O)cc1 | 4.47 µM [falling, partial curve] | 22.4 µM [falling, partial curve]

Entries 20–21 of the list above:
Row | SMILES | AC50 [1] | AC50 [2]
20 | O=C(OCc1ccccc1F)c1ccc2c(c1)-c1ccccc1C2=O |  | 17.8 µM [rising, single point]
21 | O=C(Nc1ccc(S(=O)(=O)N2CCCC2)cc1)c1ccc2c(=O)n3c(nc2c1)CCCCC3 | 1.41 µM [rising, partial curve] | 2.82 µM [rising, partial curve]
